The test concerns the target T1, NdhD (S. oleracea) (UniProt Q9M3J0).
T1 sequence: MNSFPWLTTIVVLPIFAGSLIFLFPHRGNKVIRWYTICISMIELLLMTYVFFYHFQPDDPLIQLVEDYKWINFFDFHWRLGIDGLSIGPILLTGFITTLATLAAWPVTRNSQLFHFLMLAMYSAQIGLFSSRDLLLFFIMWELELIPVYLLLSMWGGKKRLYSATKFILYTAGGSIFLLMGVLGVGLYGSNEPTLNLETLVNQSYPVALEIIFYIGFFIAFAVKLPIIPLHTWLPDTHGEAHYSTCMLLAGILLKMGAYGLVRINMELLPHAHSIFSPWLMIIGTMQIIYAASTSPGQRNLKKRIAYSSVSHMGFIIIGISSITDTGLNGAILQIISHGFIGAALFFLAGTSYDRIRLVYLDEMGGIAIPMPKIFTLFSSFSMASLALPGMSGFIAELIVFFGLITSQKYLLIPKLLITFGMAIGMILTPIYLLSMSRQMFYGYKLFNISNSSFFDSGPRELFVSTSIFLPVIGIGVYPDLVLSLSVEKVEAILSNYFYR
In words: cryo-EM structure; single-particle cryo-EM of the endogenous NDH–PSI–LHCI-2 supercomplex co-purified from spinach stromal lamellae in t-PCCαM; buffer A: 30 mM HEPES pH 7.8, 2 mM MgCl2, 2 mM KCl, 0.5 mM Na2-EDTA, 100 mM NaCl, 2 mM DTT, 0.04% t-PCCαM; 38,385 particles; 3.0–3.3 Å; both purified.

No constants are given. Whether binding was seen depends on the method and setting. Some binding calls cover weakened binding; strength is not graded here.

B1: NdhB (protein, UniProt A0ABD8EXD1 1-510)
chain: MIWHVQNENFILDSTRIFMKAFHLLLFDGSLIFPECILIFGLILLLMIDSTSDQKDIPWLYFISSTSLVMSITALLFRWREEPMISFSGNFQTNNFNEIFQFLILLCSTLCIPLSVEYIECTEMALTEFLLFILTATLGGMFLCGANDLITIFVAPECFSLCSYLLSGYTKKDVRSNEATTKYLLMGGASSSILVHGFSWLYGSSGGEIELQEIVNGLINTQMYNSPGISIALIFITVGIGFKLSPAPSHQWTPDVYEGSPTPVVAFLSVTSKVAASASATRIFDIPFYFSSNEWHLLLEILAILSMILGNLIAITQTSMKRMLAYSSIGQIGYVIIGIIVGDSNDGYASMITYMLFYISMNLGTFACIVLFGLRTGTDNIRDYAGLYTKDPFLALSLALCLLSLGGLPPLAGFFGKIYLFWCGWQAGLYFLVLIGLLTSVLSIYYYLKIIKLLMTGRNQEITPHVRNYRRSPLRSKNSIEFSMIVCVIASTIPGISMNPIITIAQDTLF
In the case of B1, the binding entry is on record as “binds”.

These data come from article PMC12170339, “Cryo-EM structure of the NDH–PSI–LHCI supercomplex from Spinacia oleracea” (Nature Structural & Molecular Biology, 2025).
